Several values for one entry are separate records, joined by “and”; a condition that tells them apart may be missing. Identical values can stand only once. This continues a long series; more values of the same kind are listed elsewhere.

The test system of data set [1] is transformation of CPP1 to CPP2 in pooled human serum. The data set is described as follows: In vitro serum calcification propensity (T50) screening assay. It is filed as biochemical. Also noted: key: T50 in minutes (time to 50% CPP phase transition). Here is the method:
The compounds were ranked for calcification inhibition activity using a nanoparticle-based test, developed for risk stratification, which measures the propensity for calcification in patient serum. […] The time, after which 50% of CPP phase transition occurred (T50), was assessed by time-resolved spectrophotometry at 550 nm (Supplementary Fig. 1a).
The screening assay was performed as described previously. In brief, pooled human serum (H4522, Sigma-Aldrich) stored at −20 °C was thawed at 37 °C, centrifuged (10,000 × g, and 4 °C, 30 min) (5427R, Eppendorf, Switzerland), and sterile filtered (0.22 μm filter, Millipore, Merck KGaA) to remove potential cryoprecipitates (cleared human serum). The calcium solution was 40 mM CaCl2 (102382, Merck KGaA) in HBS, pH 7.4 (RT) (100 mM HEPES (H3375, Sigma-Aldrich) and 140 mM NaCl (1734712, Fisher Scientific, Hampton, NH, USA)). […] All salt solutions and buffers were double sterile filtered (0.22 µm) and pre-warmed to 37 °C prior to use. […] The plate was sealed with an adhesive film and the absorption at 550 nm was measured every 3 min with 1 min in-between shaking for a total of 300 cycles at 37 °C using the infinite M200 microplate reader (Tecan, Männedorf, Switzerland). An A550 vs. time graph was generated and T50 (min) (time at half-maximum transition from CPP1 to CPP2) values were derived by sigmoidal curve fit using Prism 8 (nonlinear regression in the log(agonist) vs. response–variable slope (four parameter mode) using the robust fit fitting method, GraphPad Software, San Diego, CA, USA). Activities between compounds were compared by generating a T50 (min) vs. concentration (µM) graph, calculating nonlinear regression and deriving the concentration required to delay T50 to 350 min (c350) using a standard equation for the dose–response curve, Eq. (1), whereby x = [compound], y = time (min), bottom = baseline response, top = maximum response, T50 = [drug] that leads to half-maximum response, and the hill slope is a factor that describes the steepness of the curve.1 y= bottom+top - bottom/1+T50/x^hillslope.

Data set [2] in a line: PK s.c. in rats with vitamin D and warfarin-induced VC. It is filed as in vivo, rat. The note with it: 50 mg/kg s.c., unit not given. Here is the method: Moreover, the systemic exposure of the compound after s.c. administration was assessed in rats with VC (Fig. 4f, Supplementary Table 3).
To study PK in rats presenting with VC, plasma samples were used from a sub-group of the study where calcification was induced with vitamin D and warfarin treatment.
(§1) The bioanalytical method for (OEG2)2-IP4 in rat plasma was further optimized, qualified, and applied to the comparative PK study in adenine and high-phosphate diet-induced VC vs. vitamin D-induced VC animals. The LC-MS/MS analyses were carried out using a Dionex Ultimate RSLC ultra-high-pressure liquid chromatography (UHPLC) system (Thermo Fisher Scientific) coupled with a TSQ Quantiva^TM triple quadrupole mass spectrometer. The samples were stored at 5 °C in the autosampler prior to and during the analyses. […] Gradient elution (solvent A, 20 mM ammonium acetate in water (pH 5); solvent B, ACN) was used according to the program reported in Supplementary Table 18. The injection volume was 10 µL. MS/MS parameters (MRM acquisition, cycle time 0.2 s) for (OEG2)2-IP4 are reported in Supplementary Table 19 and the ESI source, working in negative ionization mode, applied the following parameters: static spray voltage 3000 V ion transfer tube and vaporizer temperatures at 400 and 100 °C, respectively; sheath and auxiliary gas (nitrogen) flow rates at 80 and 3 (arbitrary units). For the quantitative determination in rat plasma, product ion m/z 158.9 was selected because it provided the best sensitivity and selectivity. Calibration curve and quality control samples were prepared by adding 2 μL of working solution to 38 μL rat blank K3EDTA plasma (Biochemed, Winchester, VA) and precipitating plasma protein by addition of 120 μL of MeOH including internal standard OEG11-IP5. Samples were vortexed 1 min and centrifuged at (22,000 × g, 4 °C, 10 min). Supernatants (90 μL) were then transferred into a glass vial with insert and injected onto LC-MS/MS system. Both in adenine and high-phosphate diet-induced VC and vitamin D-induced VC rat PK samples were prepared for analysis in an analogous manner as done for spiked samples (assay volume 40 μL). The LLOQ and LOD in rat plasma for (OEG2)2-IP4 were 50 and 10 ng/mL, respectively. The ULOQ and detection was 50,000 ng/mL.

A short description of data set [3]: PK s.c. in healthy and adenine/high-phosphate-diet (uremic) rats. The data set is classed as in vivo, male Sprague-Dawley rats. As to conditions: individual rats. Here is the method:
For many drugs, the PK profile depends on the patient’s renal status. Therefore, (OEG2)2-IP4 PK profile was also determined in an adenine and high-phosphate-diet-induced rat model of uremia, in which the compound was administered after serum creatinine levels had increased by fourfold relative to baseline (Fig. 4g, h). […] Similar results were observed following s.c. administration (Supplementary Table 5).
To study PK in uremic animals, male Sprague-Dawley rats (Charles River Laboratories, L’Arbresle, France) were housed two per cage with free access to water and standard chow (rat/mouse maintenance diet, SSNIFF Spezialdiäten GmbH, Soest, Germany) and submitted to a 12-h light/dark cycle. Animals were fed a low-protein (2.5%) diet containing high phosphorus (1.3% phosphorus and 0.7% calcium) and 0.3% adenine to induce uremia (SSNIFF Spezialdiäten GmbH). Control animals were fed same diet but without adenine. Every 10 days, a sample of blood was punctured at the tail vein of each animal. Serum and urine creatinine, calcium, and phosphorus were then assessed using standard colorimetric biochemistry analysis (Cobas Mira, Roche, Basel, Switzerland). When a fourfold increase of creatinine was observed compared to control, the rat was considered uremic and suitable for PK experiments. The method was validated using eight animals on control- and adenine-supplemented diet respectively. For PK studies, on the morning of the experimental day, a catheter was inserted in the right carotid artery under halothane anesthesia. Subsequently, rats were allowed to recover for 3 h and uremic and non-uremic rats, respectively, were assigned to three groups of six rats each. […] Blood aliquots were drawn after drug administration, centrifuged, decanted, and stored at −80 °C until serum drug quantification by LC-MS, as well as analysis of serum creatinine, calcium, and phosphorus (Cobas Mira).
as §1

The nature of the next data set: PK in healthy rats, s.c. As to conditions: 10 mg/kg s.c., unit not given, listed as INS-3001. It is filed as in vivo, male Sprague-Dawley rats.

`O=P(O)(O)O[C@H]1[C@H](OP(=O)(O)O)[C@@H](OP(=O)(O)O)[C@H](OP(=O)(O)O)[C@@H](OP(=O)(O)O)[C@H]1OP(=O)(O)O` [IP6, myo-Inositol hexakisphosphate]: the T50 in data set [1] (1 µM, individual experiments, Fig. 2a) is 205.833 min and 241.367 min and 211.033 min and 236.6 min and 219.333 min and 246.167 min and 222.067 min and 238.467 min and 218.333 min and 214.533 min and 215.3 min and 189.27 min and 219.5 min and 285.033 min and 217.167 min and 213.067 min and 193.5 min and 255.733 min and 223.95 min and 207.467 min and 150.1 min and 195.15 min and 221.567 min and 215.367 min and 214 min and 248.3 min and 238.433 min; in data set [1] (50 µM, individual experiments, Fig. 2a), 408.6 min and 411.9 min; in data set [1] (concentration 4.1 μM, one value per experiment), 217.4 and 239.4 and 277.7 and 241.067; in data set [1] (concentration 5 μM, one value per experiment), 249.8 and 203.1 and 210; in data set [1] (concentration 8.2 μM, one value per experiment), 256.2; in data set [1] (concentration 15 μM, one value per experiment) it was 257.433 and 252.1 and 309.067 and 247.867. In addition, the T50 in data set [1] (concentration 20 μM, one value per experiment) is 287.15 and 265.7 and 269.8.

Regarding `COCCOCCO[C@@H]1[C@@H](OP(=O)(O)O)[C@H](OCCOCCOC)[C@@H](OP(=O)(O)O)[C@@H](OP(=O)(O)O)[C@H]1OP(=O)(O)O` [(OEG2)2-IP4, 4,6-Di-O-(methoxy-diethyleneglycol)-myo-inositol-1,2,3,5-tetrakis(phosphate)], the plasma concentration in data set [2] (calcification, time 0) was 0.1 and 0.09; in data set [2] (calcification, time 0.5) it was 29.92 and 33.93 and 44.72 and 24.81; in data set [2] (calcification, time 1), 31.77 and 35.22 and 43.64 and 22.41; in data set [2] (calcification, time 2), 21.96 and 26.6 and 34.67 and 22.63; in data set [2] (no calcification, time 0, individual rats Fig. 4f), 0.11 and 0.07 and 0.05 (2×); in data set [2] (no calcification, time 0.5) it was 49.46 and 54.81 and 36.19 and 53.17. For the same compound, the plasma concentration was 31.67 and 36.63 and 38.99 and 33.67 in data set [2] (no calcification, time 1); 5.6 and 4.16 and 4.71 and 2.98 in data set [2] (no calcification, time 4); 1.4 and 1.5 and 1.1 and 1.12 in data set [2] (no calcification, time 6); 5.25 and 4.88 and 3.96 in the data set “PK in healthy rats, s.c.” (5 min, individual rats Fig. 4c); 11.57 and 10.44 and 9.75 in the data set “PK in healthy rats, s.c.” (0.25 h); 11.38 and 11.68 and 13.4 in “PK in healthy rats, s.c.” (0.5 h). In addition, the plasma concentration in “PK in healthy rats, s.c.” (1 h) was 8.31 and 7.96 and 7.74; in “PK in healthy rats, s.c.” (2 h) it was 3.78 and 4.11 and 3.83; in the data set “PK in healthy rats, s.c.” (2.5 h), 1.48 and 1.72 and 1.16; in the data set “PK in healthy rats, s.c.” (4 h), 0.41 and 0.73 and 0.37; in the data set “PK in healthy rats, s.c.” (6 h) it was 0.11 and 0.13 and 0.12. Also, the “plasma concentration (Figure 4h)” value in data set [3] (Healthy, Time 5 min) is 10.8247 and 14.4267 and 10.1109 and 10.4757 and 9.587 and 7.707; in data set [3] (Healthy, Time 0.25 h), 12.5969; in data set [3] (Healthy, Time 0.5 h), 12.0842 and 17.8362 and 7.972 and 7.101 and 10.7529 and 6.619; in data set [3] (Healthy, Time 1 h), 14.859 and 15.0529 and 3.358 and 3.315 and 4.189 and 3.695; in data set [3] (Healthy, Time 2 h) it was 5.516 and 9.679 and 0.6721 and 0.7942 and 1.077 and 1.0197; in data set [3] (Healthy, Time 4 h), 1.074 and 2.423 and 0.181 and 0.2442 and 0.2082 and 0.1436. Besides, the “plasma concentration (Figure 4h)” value was 1.449 and 0.1379 and 0.1235 and 0.1092 and 0.07755 in data set [3] (Healthy, Time 5 h); 0.3835 and 0.8689 and 0.09479 and 0.1135 and 0.09335 and 0.05027 in data set [3] (Healthy, Time 6 h); 3.569 and 3.0031 and 5.041 and 3.385 in data set [3] (Uremic, Time 5 min); 9.98 and 7.361 and 8.303 in data set [3] (Uremic, Time 0.25 h); 13.3466 and 9.674 and 7.336 and 6.617 and 6.881 in data set [3] (Uremic, Time 0.5 h); 9.92 and 14.2041 and 9.624 and 5.504 and 17.042 and 11.1047 in data set [3] (Uremic, Time 1 h). Also, the “plasma concentration (Figure 4h)” value was 3.592 and 8.353 and 8.923 and 5.504 and 9.903 and 5.99 in data set [3] (Uremic, Time 2 h); 1.439 and 5.9387 and 3.026 in data set [3] (Uremic, Time 3 h); 0.8316 and 4.9391 and 5.0181 and 3.583 and 2.826 and 2.029 in data set [3] (Uremic, Time 4 h); 3.697 and 3.167 and 1.018 in data set [3] (Uremic, Time 5 h); 0.3978 and 2.859 and 2.812 and 2.577 and 0.4567 and 0.5946 in data set [3] (Uremic, Time 6 h).

(Values after publication PMC7002685, “Inhibition of vascular calcification by inositol phosphates derivatized with ethylene glycol oligomers” (Nature Communications, 2020).)
